Results are given in words; binding and its absence hold for the method and conditions named. For some of these results: Binding seen in cells or lysates may run through a third protein. Some entries that bind do so weakly or less than the wild type. Sequences can lack the tags named with a protein.

The target of assay [1] is T1, GRAIN WEIGHT 6a (GW6a), yeast two-hybrid fusion used for the screen (rice (Oryza sativa)) (UniProt Q67UR2).
T1 sequence: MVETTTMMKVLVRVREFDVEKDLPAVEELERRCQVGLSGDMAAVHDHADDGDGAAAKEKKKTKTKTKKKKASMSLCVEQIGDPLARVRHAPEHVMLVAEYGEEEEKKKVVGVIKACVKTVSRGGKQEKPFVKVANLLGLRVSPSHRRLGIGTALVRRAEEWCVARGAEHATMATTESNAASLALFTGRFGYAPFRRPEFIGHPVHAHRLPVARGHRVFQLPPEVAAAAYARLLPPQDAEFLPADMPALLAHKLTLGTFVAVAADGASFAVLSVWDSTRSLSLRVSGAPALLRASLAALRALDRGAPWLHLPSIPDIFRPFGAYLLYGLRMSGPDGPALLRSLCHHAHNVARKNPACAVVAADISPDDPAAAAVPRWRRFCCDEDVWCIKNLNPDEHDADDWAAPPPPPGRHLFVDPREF
Briefly: two-hybrid; yeast two-hybrid screen for proteins that interact with GW6a; no methods given.

The target in assay [2] is T2, nYFP-GW6a (tobacco leaves, pBI-2YN) (rice (Oryza sativa)) (UniProt Q67UR2).
T2 sequence: T1 sequence
Briefly: split reporter; BiFC, split YFP, in N. benthamiana leaves; confocal microscopy; H2B-mCherry as nuclear marker.

In assay [3] the target is GST-OsMAPK6 (rice (Oryza sativa)) (UniProt Q84UI5). As to the kind of experiment: pull-down; GST-tag purification resin incubated with GST or the GST fusion at 4 C for 1 h, then with CLG1-Myc or His-GW6a at 4 C for 1 h; washed with PBS, 0.05% SDS, 1% Triton X-100; immunoblot with anti-GST, anti-Myc or anti-GW6a. In general terms: A western blot detects proteins with antibodies after separation by electrophoresis.

Assay [4] addresses OsMAPK6-GFP (rice (Oryza sativa)) (UniProt Q84UI5). As to the kind of experiment: co-IP; N. benthamiana leaves co-expressing GW6a-Myc and the GFP fusion (or GFP), 72 h; total protein on anti-GFP affinity beads, 4 C, 3 h; immunoblot with anti-GFP and anti-Myc.
Assay [5] addresses T3, GW6a-nLUC (rice (Oryza sativa)) (UniProt Q67UR2).
T3 sequence: T1 sequence
Briefly: split reporter; split firefly luciferase complementation in N. benthamiana leaves; GW6a-nLUC with CLG1-cLUC, GW2-cLUC or HDR3-cLUC, with or without a third protein as GFP fusion (GW2-GFP, HDR3-GFP, CLG1-GFP); LUC signal by CCD imaging.

In the case of “MITOGEN-… PROTEIN KINASE 6 (OsMAPK6), hit of the yeast two-hybrid screen (from UniProt Q84UI5 1-398)”, the binding entry in assay [1] was “binds”. Turning to “OsMAPK6-cYFP (from UniProt Q84UI5 1-398) (enzyme)”, in assay [2], the binding result was “binds”.

B1: His-GW6a (protein, UniProt Q67UR2 1-419)
chain: T1 sequence
Turning to B1, the binding entry in assay [3] is given as “binds”.

B2: GW6a-Myc (protein, UniProt Q67UR2 1-419)
chain: T1 sequence
On to B2, for which, in assay [4], the binding entry is “binds”.

B3: HDR3-cLUC (protein, UniProt Q10NJ6 1-501)
chain: MAYSSRSCDQCSHERRSGFMKWLCAFLKGTKDGEANRRRPRVTAGEETTLWEEPVRPKKEEPPRHNNEEMDHALALALADDAKNTKERNHDKGENDEELARAIQDSLNMNPYQPYNPCAPSQTQARSRGYRVCGGCKHEIGHGHYLSCLGMYWHPQCFRCSSCRHPIREMEFTLLGTDPYHKLCYKELHHPKCDVCLQFIPTNRTGLIEYRAHPFWGQKYCPLHEHDRTPRCCSCEKMEPRNTKYMSLGDGRSLCMECLDSAIMDTGECQPLYHSIRDYYEGMNMKLDQQIPMLLVERQALNEAMEGESKGPHHMPETRGLCLSEEQTVTSILRRPRIGANRLLDMKTQPQKLTRRCEVTAILVLFGLPRLLTGSILAHELMHGWLRLKGYRNLKAEIEEGICQVMSYLWLESEILPSTSRYGQASTSYASSSSSSCRPPPSKKGGISHTEKKLGEFFLHQIANDTSSAYGDGFRAAYAAVNKYGLRQSLNHIRLTGGFPV
For B3, the binding entry in assay [5] is “binds”.

B4: GW2-cLUC (enzyme, UniProt B9F4Q9 1-425)
chain: MGNRIGGRRKAGVEERYTRPQGLYEHRDIDQKKLRKLILEAKLAPCYMGADDAAAAADLEECPICFLYYPSLNRSKCCSKGICTECFLQMKPTHTAQPTQCPFCKTPSYAVEYRGVKTKEERSIEQFEEQKVIEAQMRMRQQALQDEEDKMKRKQNRCSSSRTITPTKEVEYRDICSTSFSVPSYRCAEQETECCSSEPSCSAQTSMRPFHSRHNRDDNIDMNIEDMMVMEAIWRSIQEQGSIGNPVCGNFMPVTEPSPRERQPFVPAASLEIPHGGGFSCAVAAMAEHQPPSMDFSYMAGSSAFPVFDMFRRPCNIAGGSMCNLESSPESWSGIAPSCSREVVREEGECSADHWSEGAEAGTSYAGSDIVADAGTMPQLPFAENFAMAPSHFRPESIEEQMMFSMALSLADGHGRTHSQGLAWL
Consider B4, for which the binding result in assay [5] is “binds”.

B5: GW2-GFP (enzyme, UniProt B9F4Q9 1-425)
chain: B4 chain
Consider B5, for which the binding entry in assay [5] is on record as “binds”.

For the origin of these results see publication PMC11109111.
